Article PMC10273075

How the values were obtained:
HIS-MYB44 = experiment: EMSA; settings: EMSA: protein and biotin-labeled probe incubated at 24 C for 30 min; native PAGE; recombinant protein; protein details: His (pET32a); label: biotin
HIS-ABI5 = experiment: EMSA; settings: EMSA: protein and biotin-labeled probe incubated at 24 C for 30 min; native PAGE; recombinant protein; protein details: His (pET32a); label: 3' biotin

Sequence	binding result (HIS-MYB44)	binding result (HIS-ABI5)
ATAAAACTGAATTTCTCTATTCAAA (double strand) [PAO-Pr2]	no binding	
CTTCTTCAAACGTGTACGCAACA (double strand) [PAO-P2]		no binding
TGGATTGCAGAACTGTCTCCTAGGC (double strand) [PPH-Pr4]	no binding	

Construct, isoform or probe ends are uncertain for at least one entry. No signal at the amounts used counts as a negative.
